Assay results reported in PMC7456482.
Results are given in words; binding and its absence hold for the method and conditions named. Binding seen in cells or lysates may run through a third protein. Some results given as binding are weak or reduced against the parent protein; the word gives no strength.

Amino acid sequences for entries named in this document (tags omitted).
UniProt P12813: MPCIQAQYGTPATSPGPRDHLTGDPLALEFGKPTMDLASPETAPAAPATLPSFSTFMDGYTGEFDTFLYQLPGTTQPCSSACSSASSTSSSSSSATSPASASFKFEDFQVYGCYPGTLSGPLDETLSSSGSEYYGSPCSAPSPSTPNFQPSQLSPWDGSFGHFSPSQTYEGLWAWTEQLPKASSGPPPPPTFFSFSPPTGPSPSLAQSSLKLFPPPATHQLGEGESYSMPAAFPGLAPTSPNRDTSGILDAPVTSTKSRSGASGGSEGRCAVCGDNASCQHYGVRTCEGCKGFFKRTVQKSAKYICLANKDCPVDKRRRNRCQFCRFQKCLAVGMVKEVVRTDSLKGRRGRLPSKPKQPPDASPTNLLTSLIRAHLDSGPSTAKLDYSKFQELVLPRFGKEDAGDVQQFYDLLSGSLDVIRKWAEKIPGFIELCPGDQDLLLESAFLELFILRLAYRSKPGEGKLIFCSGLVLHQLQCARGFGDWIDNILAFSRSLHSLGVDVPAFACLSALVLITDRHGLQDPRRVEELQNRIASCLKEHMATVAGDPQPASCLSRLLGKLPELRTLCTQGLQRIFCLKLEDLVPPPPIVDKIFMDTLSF

T1: Tumor necrosis factor receptor-associated factor 6 (mouse (endogenous in MODE-K)) (UniProt P70196)
T1 sequence: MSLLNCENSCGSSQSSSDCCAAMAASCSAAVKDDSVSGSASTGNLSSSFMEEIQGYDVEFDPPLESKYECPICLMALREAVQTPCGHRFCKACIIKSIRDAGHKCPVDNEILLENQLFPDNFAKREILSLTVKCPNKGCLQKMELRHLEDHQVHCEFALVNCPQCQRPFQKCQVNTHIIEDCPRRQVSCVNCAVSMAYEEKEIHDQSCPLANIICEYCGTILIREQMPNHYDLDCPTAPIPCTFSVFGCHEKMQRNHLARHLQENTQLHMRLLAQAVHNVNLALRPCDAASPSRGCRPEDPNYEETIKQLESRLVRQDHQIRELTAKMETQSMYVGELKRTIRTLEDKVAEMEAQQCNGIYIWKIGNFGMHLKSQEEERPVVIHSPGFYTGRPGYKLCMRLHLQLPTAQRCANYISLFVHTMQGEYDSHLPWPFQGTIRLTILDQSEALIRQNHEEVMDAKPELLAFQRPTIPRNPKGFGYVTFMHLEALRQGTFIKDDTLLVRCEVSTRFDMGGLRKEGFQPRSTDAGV

B1: Tumor necrosis factor receptor-associated factor 6 (protein, UniProt P70196 1-530)
chain: T1 sequence

How the values were obtained:
[1] = biological target: T1, Tumor necrosis factor receptor-associated factor 6 (mouse (endogenous in MODE-K)); assay: co-IP; endogenous TRAF6 immunoprecipitated from MODE-K lysate (IP buffer, protein A/G beads), immunoblot for Nur77; cells treated with GPA
[2] = biological target: Nur77 (mouse (endogenous in MODE-K)) (UniProt P12813); assay: co-IP; endogenous Nur77 immunoprecipitated from MODE-K lysate (IP buffer, protein A/G beads), immunoblot for TRAF6 and p62; cells treated with GPA (1 mM, 6 h) and/or LPS (1 ug/ml, 3 h)

Molecule	binding [1]	binding [2]
Nur77 (from UniProt P12813 1-601)	binds	–
B1	–	binds
